# Screening data, single-dose tests

Protein sequences, listed by entry. Tags and fused reporters are not part of them. Residues count along the entry.
UniProt Q4DA54, 1-478: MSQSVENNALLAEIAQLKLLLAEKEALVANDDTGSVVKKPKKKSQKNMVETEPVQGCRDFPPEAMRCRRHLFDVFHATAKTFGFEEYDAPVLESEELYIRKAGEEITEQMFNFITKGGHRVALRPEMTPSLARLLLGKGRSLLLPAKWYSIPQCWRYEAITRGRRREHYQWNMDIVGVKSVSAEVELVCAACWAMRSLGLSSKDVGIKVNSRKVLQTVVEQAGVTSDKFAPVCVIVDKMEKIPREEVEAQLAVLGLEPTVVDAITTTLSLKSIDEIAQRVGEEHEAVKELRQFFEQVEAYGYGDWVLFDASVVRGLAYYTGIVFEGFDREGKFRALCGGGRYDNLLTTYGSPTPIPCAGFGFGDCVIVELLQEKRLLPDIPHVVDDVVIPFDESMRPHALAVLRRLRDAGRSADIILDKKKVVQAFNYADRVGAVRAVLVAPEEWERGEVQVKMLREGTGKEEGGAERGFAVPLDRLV
UniProt A4I591, 1-473: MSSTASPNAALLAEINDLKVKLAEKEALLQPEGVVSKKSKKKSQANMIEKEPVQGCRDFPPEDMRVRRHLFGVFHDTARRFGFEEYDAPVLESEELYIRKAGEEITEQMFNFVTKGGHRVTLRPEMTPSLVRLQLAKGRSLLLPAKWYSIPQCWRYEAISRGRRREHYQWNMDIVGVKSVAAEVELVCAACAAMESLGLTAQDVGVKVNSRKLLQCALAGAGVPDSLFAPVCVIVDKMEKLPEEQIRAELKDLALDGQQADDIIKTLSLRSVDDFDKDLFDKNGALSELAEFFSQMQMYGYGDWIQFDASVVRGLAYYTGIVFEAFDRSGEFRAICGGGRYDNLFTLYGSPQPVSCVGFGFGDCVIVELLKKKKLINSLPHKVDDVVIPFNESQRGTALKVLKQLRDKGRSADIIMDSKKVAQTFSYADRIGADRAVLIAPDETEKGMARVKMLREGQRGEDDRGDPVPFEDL

T. brucei: 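Whole-parasite assay of Trypanosoma brucei over 72 hours; the read-out is not stated. Compounds at 30 µM. Higher reads as stronger inhibition (inferred: compounds with an IC50 in retests scored well above the rest). Values scatter widely below zero; nearly all retest evidence comes from the higher of the two concentrations used. About 64,000 compounds were tested under these conditions; 1.5% (about 940) showed 50% or more at least once.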
TcHisRS: 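Enzyme assay of histidyl-tRNA synthetase; the read-out is not stated. Target: Histidine-tRNA ligase, Trypanosoma cruzi CL Brener (UniProt Q4DA54). Tested at 30 µM. The record gives no direction; compounds that gave an IC50 in retests scored well above the rest, so higher reads as stronger inhibition. Of about 69,000 compounds tested this way, about 31 (0.045%) reached 50% or more in at least one test.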
LiHisRS: 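Enzyme assay of histidyl-tRNA synthetase; the read-out is not stated. Target: Histidine-tRNA ligase, Leishmania infantum (UniProt A4I591). Concentration: 30 µM. The record gives no direction; compounds that gave an IC50 in retests scored well above the rest, so higher reads as stronger inhibition. The assay is labelled LdHisRS but filed under L. infantum. Size under these conditions: about 69,000 compounds, about 410 of them at 50% or above in at least one test.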

Values are the deposited “Percent Effect”, in %. The controls that fix the scale are not given in the record; negative values are as filed. Compounds were drawn at random from those tested, without regard to their results. A dash means the value is not listed here; it may have been measured.

| Compound | T. brucei | TcHisRS | LiHisRS |
|---|---|---|---|
| `CN(C)Cc1nn(C)c2c1CCN(S(=O)(=O)c1cccs1)C2` | 3.284% | 3.261% | 28.16% |
| `CCN(c1ccc(C(=O)NCCCN2CCOCC2)cc1)S(=O)(=O)CC` | -34.92% | 3.261% | 0% |
| `Cc1[nH]nc(CCC(=O)N2CCCC(OCc3cccnc3)C2)c1C` (centres unmarked) | 5.795% | 3.306% | 15.24% |
| `CC(C)(C)c1ncc(C(=O)N2CCN(C(=O)c3ccc[nH]3)CC2)c(O)n1` | -1.59% | 1.01% | 11.48% |
| `O=C(Nc1cnc2n1CCCC2)C1CCNCC1` | -37.26% | 9.639% | 12.82% |
| `O=C(CCc1nc(-c2cccnc2)no1)N(CC1CCOC1)C1CC1` (centres unmarked) | -367.5% | -1.587% | 16.44% |
| `Cc1n[nH]cc1CNCC(O)c1ccc(F)c(F)c1` (centres unmarked) | - | 12.07% | 4.464% |
| `CSc1nc2ccsc2c(=O)n1CC(=O)N(C)C1CCCCC1` | -3.87% | 4.386% | 19.64% |
| `CCOc1nnc(CN2CCC(c3nc4ccccc4[nH]3)CC2)s1` | -50.88% | 3.448% | 17.11% |
| `CSCCC(=O)N1C[C@H](Nc2ccnc(C)n2)[C@@H](C(C)C)C1` | -12.88% | 2.404% | 12.2% |
| `O=C(CN1CC(c2nc(-c3ccco3)no2)C1)NCCc1ccccc1` | - | 2.646% | 17.33% |
| `Cn1cc(Cl)c(CN2CCCC(Cn3cc(CO)nn3)C2)n1` (centres unmarked) | 1.218% | 1.02% | 8.333% |
| `Cc1nc(CCNC(=O)N2CCC(Cc3cnn(C)c3)C2)cs1` (centres unmarked) | 16.39% | 0% | 11.43% |
| `COCc1ncc(CN2CCC(Oc3ccccc3C)CC2)cn1` | 6.713% | 0% | 25.97% |
| `Cc1nc(CN2CCC(N(C)Cc3nnc(C4CC4)n3C)C2)cs1` (centres unmarked) | -12.73% | 6.395% | 16.07% |
| `CC(=O)c1ccc(Cl)c(Cl)c1OCC(=O)NC(N)=O` | -1.695% | 3.448% | 21.93% |
| `CN(C)c1cc(C2CCCN2C(=O)c2noc3c2CCCC3)ccn1` (centres unmarked) | -4.785% | 4.215% | 8.571% |
| `[H][C@]12CC[C@@]3(N=C(c4ccccc4)NC3=O)[C@@]1([H])CN(Cc1ccco1)C2` | 31.83% | - | - |
| `Cc1nc(CNC(=O)NCC(O)c2ccc(F)cc2F)cs1` (centres unmarked) | -8.159% | 2.642% | 25.68% |
| `N#Cc1ccc(Cn2cncn2)c(F)c1` | -25.3% | 12.07% | 4.464% |
| `O=C1N(CCc2ccccc2)CCCC12CCN(C(CO)CO)C2` (centres unmarked) | -31.57% | 1.98% | 12.33% |
| `O=C(O)C(F)(F)F.[H][C@@]12CN(C(=O)c3cccs3)C[C@]1([H])OCCN2CC1CCCO1` (some centres unmarked) | -18.35% | - | - |
| `O=C1CC2(CCCNC2)C(=O)N1Cc1ccc(F)cc1` (centres unmarked) | - | 4.511% | -31.71% |
| `CCOC(=O)Cn1ccc(O)c(Cc2ccc(Cl)cc2Cl)c1=O` | - | 8.333% | 12.5% |
| `CN(Cc1cnn(C)c1)C(=O)NC1CCS(=O)(=O)C1` (centres unmarked) | -15.74% | 3.252% | 18.27% |
| `CCOc1cc(C)nc(N2CCN(C(=O)c3cc[nH]n3)CC2)n1` | 5.409% | 2.339% | 12.73% |
| `CC(C)=CCN1C[C@@H](C(=O)O)C[C@H](C(=O)Nc2ccc(C)nc2)C1` | 7.339% | 6.468% | 18.18% |
| `[H][C@@]12CCN(C(=O)c3ccncn3)C[C@@]1([H])O[C@@H](C)C2` | 11.62% | - | - |
| `CCOC(=O)c1ccc(CNC(=O)c2ccon2)o1` | -14.91% | 0% | -2.632% |
| `COc1cccc(CCNC(=O)CN2CCN(C)CC2C)c1` (centres unmarked) | 4.077% | 3.448% | 6.154% |
| `Cc1nc(C)n(CC(=O)N2CCCC(c3nc(C)n4c(C)csc34)C2)n1` (centres unmarked) | -11.45% | 4.215% | 8.571% |
| `c1cnnc(N2CCCC2CNCc2nc(-c3ccco3)no2)c1` (centres unmarked) | 3.924% | 10.26% | 28.7% |
| `CCc1cnc(NCCS(=O)(=O)CC(C)C)nc1` | -1.534% | -10.77% | 22.22% |
| `Cc1ccc(CN2CCN(Cc3cc(C)n[nH]3)CC2CCO)cc1` (centres unmarked) | -27.73% | -4.255% | 30% |
| `Clc1cc(N2CCN(C3CCOCC3)CC2)nc2[nH]ccc12` | -8.702% | 12% | 22.45% |
| `CC(C)N(C)S(=O)(=O)NCc1cccnc1N(C)C` | -30.17% | 5.155% | 22.86% |
| `CC(CCn1cccn1)Nc1ccc(-c2nccn2C)nn1` (centres unmarked) | -74.92% | 1.299% | 16.67% |
| `CC(C)n1c(=O)c2ccccc2n(CCN(C)C)c1=O` | - | 7.921% | 17.39% |
| `O=S(=O)(Nc1ccc(N2CCOCC2)cc1)c1cccc(F)c1` | -48.06% | 5.419% | 25% |
| `CC(c1ncc(C(C)(C)C)o1)N1CCN(Cc2ccncc2)CC1` (centres unmarked) | -2.323% | 2.532% | 4.167% |
| `[H][C@@]12CCN(CC3CCOCC3)[C@]1([H])CC[C@H](c1nnc(C)o1)O2` | 0.2399% | - | - |
| `CCc1c(C)nc(N)nc1N1CCCC(c2nc(CCOC)no2)C1` (centres unmarked) | -46.14% | 5.288% | 4.878% |
| `CC(=O)NCC(=O)N1CCN(CCN(C)C)c2ncccc2C1` | - | -2.041% | -1% |
| `Cc1ccc(-n2nnc(CC(=O)N3CCOCC3)c2C)cc1` | 11.03% | 0.8368% | 19.81% |
| `CCN1C(=O)CCCC12CCCN(C(=O)c1ccncc1F)C2.O=C(O)C(F)(F)F` (centres unmarked) | -11.39% | - | - |
| `COc1ccc2c(c1)CCN(CCC(=O)O)CC2` | -10.95% | 2.5% | 15.38% |
| `O=C1CC2(CCN(C(=O)c3cccc(Cl)c3)CC2)CN1` | - | 0.9662% | 10.83% |
| `CN(C)CCN1CCN(Cc2nccs2)Cc2cccnc21` | - | 11.21% | 5.556% |
| `Cn1cc(CN2CCCC3(COCCN(Cc4c[nH]nn4)C3)C2)cn1` (centres unmarked) | - | 3.922% | 11.43% |
| `CC(C)(C)c1n[nH]cc1CNC1CCC(O)CC1` (centres unmarked) | -52.6% | 10.45% | 20.48% |
| `Cc1ccc(C(=O)O)cc1S(=O)(=O)Nc1nn(-c2ccccc2)cc1C` | -70.61% | -1.653% | 13.46% |
| `COCCN(C)CCN1CC2(CCN(C3CCCCC3)CC2)OC1=O` | -13.04% | 1.508% | 15.2% |
| `[H][C@]12CC[C@@]3(N=C(C)N(CC4CC4)C3=O)[C@@]1([H])CN(S(=O)(=O)CC(C)C)C2` | -9.428% | - | - |
| `CN(C)c1nc(N)nc(CN2CCCC2c2ccsc2)n1` (centres unmarked) | -20.26% | 19% | 30.61% |
| `CC(C)CCN(C)Cc1nc2c(cnn2C)c(=O)[nH]1` | 0.4486% | 4.399% | 15.74% |
| `CCS(=O)(=O)N1CCC2(CC1)CC[C@@]1(C(=O)NC)CN(C(C)=O)C[C@@H]21` | - | -3.743% | 19.66% |
| `Cc1nc(C2CCCN2C(=O)c2cnns2)no1` (centres unmarked) | -16.64% | 3.422% | 18.4% |
| `Cc1occc1C(=O)N1CCCC2(CCN(c3ccsc3)C2=O)C1` (centres unmarked) | -19.18% | 1.02% | 9% |
| `O=C(NCCn1ccnc1-c1cc2n(n1)CCNC2)c1ccc(F)cc1` | -40.12% | 7.879% | 6.667% |
| `COC1CCCOC12CCN(C(=O)NCc1ccco1)CC2` (centres unmarked) | -35.66% | 1.786% | 17.7% |
| `O=C(NCCOc1ccc(Cl)cc1)N1CCS(=O)(=O)CC1` | -22.1% | -3.817% | 19.15% |
| `COCCN1CCCC(O)(CN2CCN(c3cc(C)ccn3)CC2)C1=O` (centres unmarked) | -24.5% | 1.02% | 8.333% |
| `Cc1nn(C)c2nc(O)cc(C(F)(F)C(F)(F)F)c12` | 19.69% | 6.878% | 14.71% |
| `O=C(O)C(F)(F)F.O=C1CCC2(CCCN(C(=O)Cc3cccnc3)C2)N1` (centres unmarked) | -8.02% | - | - |
| `CN(Cc1ccccc1)CC(O)Cn1cnc2c(cnn2C)c1=O` (centres unmarked) | -15.07% | -0.7634% | -10.64% |
| `O=C(CN1CCC[C@H]1C(=O)O)NCCOc1cccc(Cl)c1` | - | 9.677% | 15.15% |
| `CC(C)CN1CC2(CCN(C(=O)c3cn4cccnc4n3)CC2)CC1=O` | -26.84% | 8.537% | 10.84% |
| `CN(Cc1ccco1)C(=O)CN1C(=O)c2cc(Cl)c(Cl)cc2C1=O` | -29.53% | 6.931% | 21.74% |

The last 4 entries again:

| Compound | T. brucei | TcHisRS | LiHisRS |
|---|---|---|---|
| `CN(Cc1ccccc1)CC(O)Cn1cnc2c(cnn2C)c1=O` (centres unmarked) | -15.07% | -0.7634% | -10.64% |
| `O=C(CN1CCC[C@H]1C(=O)O)NCCOc1cccc(Cl)c1` | - | 9.677% | 15.15% |
| `CC(C)CN1CC2(CCN(C(=O)c3cn4cccnc4n3)CC2)CC1=O` | -26.84% | 8.537% | 10.84% |
| `CN(Cc1ccco1)C(=O)CN1C(=O)c2cc(Cl)c(Cl)cc2C1=O` | -29.53% | 6.931% | 21.74% |

Data taken from ChEMBL document CHEMBL3988442, “University of Dundee, Small-Polar-MMV Screening Library” (2021).